Data published in the supplement of paper PMC10849652.
This is one part of the list.

Protein sequences, listed by entry. Tags and fused reporters are not part of them. Lines headed by an entry give the natural chain unless they say otherwise; changes in a name come on top.
UniProt Q12905: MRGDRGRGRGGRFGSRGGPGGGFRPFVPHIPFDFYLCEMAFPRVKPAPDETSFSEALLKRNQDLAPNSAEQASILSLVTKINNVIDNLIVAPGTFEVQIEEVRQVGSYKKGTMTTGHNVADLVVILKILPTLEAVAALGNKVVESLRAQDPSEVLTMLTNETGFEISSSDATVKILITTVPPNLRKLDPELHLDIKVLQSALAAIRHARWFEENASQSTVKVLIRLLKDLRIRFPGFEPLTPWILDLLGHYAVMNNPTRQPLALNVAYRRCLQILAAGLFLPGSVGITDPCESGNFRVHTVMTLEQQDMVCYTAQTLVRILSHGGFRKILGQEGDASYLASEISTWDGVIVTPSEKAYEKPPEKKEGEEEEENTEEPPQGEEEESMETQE
UniProt Q9NPH2: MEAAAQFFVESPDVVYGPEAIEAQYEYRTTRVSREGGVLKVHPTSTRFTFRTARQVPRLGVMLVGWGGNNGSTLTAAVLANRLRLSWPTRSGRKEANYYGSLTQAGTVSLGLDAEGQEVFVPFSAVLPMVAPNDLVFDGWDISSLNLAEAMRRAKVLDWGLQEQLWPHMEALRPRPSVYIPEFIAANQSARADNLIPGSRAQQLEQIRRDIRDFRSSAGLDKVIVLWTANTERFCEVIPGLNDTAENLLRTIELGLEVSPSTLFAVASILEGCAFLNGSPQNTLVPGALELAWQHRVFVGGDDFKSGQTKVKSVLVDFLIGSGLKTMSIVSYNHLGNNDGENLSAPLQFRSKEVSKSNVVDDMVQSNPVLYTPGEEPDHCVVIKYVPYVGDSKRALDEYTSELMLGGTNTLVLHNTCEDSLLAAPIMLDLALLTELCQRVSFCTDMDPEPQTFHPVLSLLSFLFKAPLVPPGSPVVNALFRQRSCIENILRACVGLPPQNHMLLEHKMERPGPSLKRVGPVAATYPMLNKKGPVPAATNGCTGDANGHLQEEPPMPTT
UniProt Q96T52: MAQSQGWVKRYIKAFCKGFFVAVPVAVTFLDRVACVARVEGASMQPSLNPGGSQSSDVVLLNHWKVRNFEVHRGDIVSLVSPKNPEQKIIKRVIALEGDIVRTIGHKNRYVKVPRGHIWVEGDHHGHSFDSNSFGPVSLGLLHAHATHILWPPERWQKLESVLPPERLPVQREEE
UniProt Q9NZI8, whole entry, looked up: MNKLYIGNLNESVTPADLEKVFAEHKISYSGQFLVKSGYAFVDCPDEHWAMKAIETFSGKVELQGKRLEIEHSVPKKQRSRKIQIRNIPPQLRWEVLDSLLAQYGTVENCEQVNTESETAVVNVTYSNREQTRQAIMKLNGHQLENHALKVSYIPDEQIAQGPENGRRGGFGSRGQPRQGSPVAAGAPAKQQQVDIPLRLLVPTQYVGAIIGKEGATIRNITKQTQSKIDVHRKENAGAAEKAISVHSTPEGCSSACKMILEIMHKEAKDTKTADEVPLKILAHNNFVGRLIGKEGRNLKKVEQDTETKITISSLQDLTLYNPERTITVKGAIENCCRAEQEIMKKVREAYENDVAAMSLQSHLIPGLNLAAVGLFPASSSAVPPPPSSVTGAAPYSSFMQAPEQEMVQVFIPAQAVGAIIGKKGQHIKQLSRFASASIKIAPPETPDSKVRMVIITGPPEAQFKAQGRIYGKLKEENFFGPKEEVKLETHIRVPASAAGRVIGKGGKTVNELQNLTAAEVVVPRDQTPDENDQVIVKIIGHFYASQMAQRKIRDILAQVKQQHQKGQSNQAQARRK
UniProt Q9H1K1: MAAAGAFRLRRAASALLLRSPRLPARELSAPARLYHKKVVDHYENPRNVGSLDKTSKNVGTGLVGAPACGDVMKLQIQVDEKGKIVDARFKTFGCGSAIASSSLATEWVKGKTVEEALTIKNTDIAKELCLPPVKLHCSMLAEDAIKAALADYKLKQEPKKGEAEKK
UniProt Q13572: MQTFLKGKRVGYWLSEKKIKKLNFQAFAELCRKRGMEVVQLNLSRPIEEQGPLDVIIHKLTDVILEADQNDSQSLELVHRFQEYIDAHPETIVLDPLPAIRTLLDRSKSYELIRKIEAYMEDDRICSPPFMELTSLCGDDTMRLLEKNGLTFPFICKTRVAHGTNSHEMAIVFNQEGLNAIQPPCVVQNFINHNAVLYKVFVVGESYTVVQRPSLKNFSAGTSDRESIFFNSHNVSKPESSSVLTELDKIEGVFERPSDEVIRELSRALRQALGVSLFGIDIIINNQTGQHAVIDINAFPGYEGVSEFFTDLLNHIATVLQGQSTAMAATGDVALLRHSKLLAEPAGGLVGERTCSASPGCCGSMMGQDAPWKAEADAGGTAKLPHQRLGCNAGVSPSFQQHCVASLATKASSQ
UniProt P78318: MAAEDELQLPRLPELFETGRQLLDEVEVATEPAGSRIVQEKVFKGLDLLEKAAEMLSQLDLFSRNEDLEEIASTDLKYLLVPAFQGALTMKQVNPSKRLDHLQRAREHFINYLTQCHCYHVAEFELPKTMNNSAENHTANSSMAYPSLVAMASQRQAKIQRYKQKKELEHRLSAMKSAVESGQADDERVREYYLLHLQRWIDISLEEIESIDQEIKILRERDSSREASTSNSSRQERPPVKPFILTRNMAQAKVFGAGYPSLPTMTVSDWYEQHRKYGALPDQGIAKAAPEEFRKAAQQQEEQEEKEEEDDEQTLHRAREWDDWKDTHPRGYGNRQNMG
UniProt Q7Z5L9: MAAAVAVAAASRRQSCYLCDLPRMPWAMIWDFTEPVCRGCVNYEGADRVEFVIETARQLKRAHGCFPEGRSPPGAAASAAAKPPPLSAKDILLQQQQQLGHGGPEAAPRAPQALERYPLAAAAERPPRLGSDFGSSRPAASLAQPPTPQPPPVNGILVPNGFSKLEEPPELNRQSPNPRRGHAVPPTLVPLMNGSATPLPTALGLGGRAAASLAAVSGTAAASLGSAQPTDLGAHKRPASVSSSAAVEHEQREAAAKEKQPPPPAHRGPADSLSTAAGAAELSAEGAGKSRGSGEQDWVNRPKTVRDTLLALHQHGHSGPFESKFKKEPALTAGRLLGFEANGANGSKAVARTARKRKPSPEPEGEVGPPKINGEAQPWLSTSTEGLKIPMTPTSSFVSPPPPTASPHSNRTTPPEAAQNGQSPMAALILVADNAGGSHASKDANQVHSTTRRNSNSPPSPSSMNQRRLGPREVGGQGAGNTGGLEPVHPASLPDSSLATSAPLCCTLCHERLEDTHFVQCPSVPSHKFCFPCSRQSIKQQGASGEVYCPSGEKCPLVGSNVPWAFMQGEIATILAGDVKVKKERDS

Legend:
Experiment in all cases: log2 fold change, soluble protein after heating vs DMSO (PISA); higher = thermal stabilisation; K562 cells, 10 uM, 30 min; active = over 0.2 and 3.5 SD of the protein, either way, in both replicates (recomputed)
bafetinib = compound: Cc1ccc(NC(=O)c2ccc(CN3CC[C@H](N(C)C)C3)c(C(F)(F)F)c2)cc1Nc1nccc(-c2cncnc2)n1 [bafetinib]
Procedure, shortened: (§1)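 For each measurement, 10 μM compound was applied for 30 min to K562 cells at 2×10^6 cells/mL. Aliquots were heated for 3 min across 48°C-58°C, pooled, and extracted in PBS with 0.5% NP-40 at 4°C; the supernatant after 21,000xg for 90 min was soluble protein. This was quantified by TMTpro 16plex LC-MS/MS with channel sums equalised, and thermal stability was reported relative to control samples from duplicates, on a log2 fold-change scale.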

[1] = compound: Cc1cccc(CC(=O)N2CCc3c2ccc(-c2cn(C)c4ncnc(N)c24)c3F)n1
Procedure, shortened: as §1

nilotinib = compound: Cc1cn(-c2cc(NC(=O)c3ccc(C)c(Nc4nccc(-c5cccnc5)n4)c3)cc(C(F)(F)F)c2)cn1 [nilotinib]
Procedure, shortened: as §1

[2] = compound: Cc1nc(Nc2n[nH]c3c2CN(C(=O)N[C@H](CN(C)C)c2ccccc2)C3(C)C)c2sccc2n1
Procedure, shortened: as §1

dasatinib = compound: Cc1nc(Nc2ncc(C(=O)Nc3c(C)cccc3Cl)s2)cc(N2CCN(CCO)CC2)n1 [dasatinib]
Procedure, shortened: as §1

[3] = compound: Cc1ncc(-c2ccnc(Nc3ccc(S(C)(=O)=O)cc3)n2)n1C(C)C
Procedure, shortened: as §1

[4] = compound: Cn1cc(-c2ccc3c(c2)CCN3C(=O)Cc2cccc(C(F)(F)F)c2)c2c(N)ncnc21
Procedure, shortened: as §1

[5] = compound: Cn1cc(-c2ccc3nnc(C(F)(F)c4ccc5ncccc5c4)n3n2)cn1
Procedure, shortened: as §1

tipifarnib = compound: Cn1cncc1[C@@](N)(c1ccc(Cl)cc1)c1ccc2c(c1)c(-c1cccc(Cl)c1)cc(=O)n2C [tipifarnib]
Procedure, shortened: as §1

mubritinib = compound: FC(F)(F)c1ccc(/C=C/c2nc(COc3ccc(CCCCn4ccnn4)cc3)co2)cc1 [mubritinib]
Procedure, shortened: as §1

[6] = compound: NC(=O)Nc1cc(-c2cccc(F)c2)sc1C(=O)N[C@H]1CCCNC1
Procedure, shortened: as §1

[7] = compound: NC(=O)c1cnc(N[C@@H]2CCCC[C@@H]2N)nc1Nc1cccc(-n2nccn2)c1
Procedure, shortened: as §1

[8] = compound: NC1(c2ccc(-c3nc4ccn5c(=O)[nH]nc5c4cc3-c3ccccc3)cc2)CCC1
Procedure, shortened: as §1

[9] = compound: NCC(=O)Nc1ccc(-n2nc(C(F)(F)F)cc2-c2ccc3c(ccc4ccccc43)c2)cc1
Procedure, shortened: as §1

entinostat = compound: Nc1ccccc1NC(=O)c1ccc(CNC(=O)OCc2cccnc2)cc1 [entinostat]
Procedure, shortened: as §1

vorinostat = compound: O=C(CCCCCCC(=O)Nc1ccccc1)NO [vorinostat]
Procedure, shortened: as §1

citarinostat = compound: O=C(CCCCCCNC(=O)c1cnc(N(c2ccccc2)c2ccccc2Cl)nc1)NO [citarinostat]
Procedure, shortened: as §1

silmitasertib = compound: O=C(O)c1ccc2c(c1)nc(Nc1cccc(Cl)c1)c1ccncc12 [silmitasertib]
Procedure, shortened: as §1

[10] = compound: O=C1NC(=O)C(c2cnc3ccccn23)=C1c1cn2c3c(cc(F)cc13)CN(C(=O)N1CCCCC1)CC2
Procedure, shortened: as §1

[11] = compound: c1cc(OCCN2CCCCC2)cc(-c2n[nH]c3ccc(-c4nnc[nH]4)cc23)c1
Procedure, shortened: as §1

Measured: log2 fold change

ILF2 (UniProt Q12905)
inactive: bafetinib 0.093 | [1] -0.012 | nilotinib -0.011 | [2] 0.251 | dasatinib 0.121 | [3] 0.3 | [4] -0.151 | [5] -0.084 | tipifarnib 0.006 | mubritinib -0.071 | [6] -0.02 | [7] 0.024 | [8] 0.121 | [9] 0.109 | entinostat -0.049 | vorinostat -0.059 | citarinostat -0.037 | silmitasertib 0.13 | [10] 0.378 | [11] -0.18

ISYNA1 (UniProt Q9NPH2)
inactive: bafetinib 0.116 | [1] -0.029 | nilotinib 0.067 | [2] -0.066 | dasatinib 0.021 | [3] 0.023 | [4] 0.009 | [5] 0.01 | tipifarnib 0.013 | mubritinib -0.011 | [6] -0.031 | [7] 0.04 | [8] 0.014 | [9] 0.034 | entinostat 0.001 | vorinostat -0.022 | citarinostat 0.161 | silmitasertib -0.017 | [10] -0.032 | [11] 0.064

IMMP2L (UniProt Q96T52)
inactive: bafetinib -0.058 | [1] -0.01 | nilotinib -0.054 | [2] -0.021 | dasatinib 0.06 | [3] 0.044 | [4] -0.001 | [5] -0.008 | tipifarnib 0.035 | mubritinib 0.099 | [6] -0.083 | [7] -0.035 | [8] -0.007 | [9] -0.033 | entinostat -0.018 | vorinostat 0.04 | citarinostat 0.036 | silmitasertib 0.006 | [10] -0.084 | [11] -0.026

IGF2BP1 (UniProt Q9NZI8)
inactive: bafetinib 0.217 | [1] 0.015 | nilotinib -0.08 | [2] -0.496 | dasatinib 0.021 | [3] -0.088 | [4] -0.334 | [5] -0.243 | tipifarnib 0.131 | mubritinib -0.265 | [6] -0.061 | [7] -0.019 | [8] 0.261 | [9] 0.081 | entinostat 0.027 | vorinostat 0.095 | citarinostat 0.058 | silmitasertib 0.274 | [10] 0.246 | [11] -0.122

ISCU (UniProt Q9H1K1)
inactive: bafetinib -0.107 | [1] -0.012 | nilotinib 0.255 | [2] 0.05 | dasatinib -0.016 | [3] -0.005 | [4] 0.004 | [5] 0.021 | tipifarnib 0.038 | mubritinib 0.038 | [6] -0.036 | [7] -0.017 | [8] -0.008 | [9] -0.015 | entinostat -0.045 | vorinostat -0.039 | citarinostat 0.013 | silmitasertib -0.008 | [10] -0.12 | [11] -0.036

ITPK1 (UniProt Q13572)
inactive: bafetinib -0.071 | [1] 0.019 | nilotinib -0.024 | [2] 0.093 | dasatinib -0.073 | [3] -0.019 | [4] 0.106 | [5] -0.009 | tipifarnib 0.052 | mubritinib 0.076 | [6] 0.018 | [7] -0.015 | [8] -0.163 | [9] -0.003 | entinostat 0.007 | vorinostat 0.056 | citarinostat 0.087 | silmitasertib 0.025 | [10] -0.061 | [11] 0.048

IGBP1 (UniProt P78318)
inactive: bafetinib 0.016 | [1] -0.016 | nilotinib -0.001 | [2] -0.084 | dasatinib -0.012 | [3] -0.044 | [4] -0.062 | [5] -0.039 | tipifarnib -0.044 | mubritinib 0.102 | [6] 0.025 | [7] -0.09 | [8] -0.136 | [9] -0.035 | entinostat 0.035 | vorinostat 0.032 | citarinostat 0.074 | silmitasertib 0.048 | [10] -0.085 | [11] -0.017

IRF2BP2 (UniProt Q7Z5L9)
inactive: bafetinib -0.036 | [1] 0.041 | nilotinib 0.003 | [2] 0 | dasatinib -0.049 | [3] 0.003 | [4] 0.036 | [5] -0.041 | tipifarnib -0.06 | mubritinib 0.022 | [6] 0.057 | [7] 0.012 | [8] -0.025 | [9] 0.063 | entinostat -0.028 | vorinostat 0.002 | citarinostat 0.033 | silmitasertib -0.002 | [10] -0.012 | [11] 0.009
